Source: publication PMC7992845
Results are given in words; binding and its absence hold for the method and conditions named. Binding seen in cells or lysates may run through a third protein. Some entries that bind do so weakly or less than the wild type.

By UniProt entry, the sequences of proteins in these tests, tags left out. Residues count along the entry.
UniProt P11142: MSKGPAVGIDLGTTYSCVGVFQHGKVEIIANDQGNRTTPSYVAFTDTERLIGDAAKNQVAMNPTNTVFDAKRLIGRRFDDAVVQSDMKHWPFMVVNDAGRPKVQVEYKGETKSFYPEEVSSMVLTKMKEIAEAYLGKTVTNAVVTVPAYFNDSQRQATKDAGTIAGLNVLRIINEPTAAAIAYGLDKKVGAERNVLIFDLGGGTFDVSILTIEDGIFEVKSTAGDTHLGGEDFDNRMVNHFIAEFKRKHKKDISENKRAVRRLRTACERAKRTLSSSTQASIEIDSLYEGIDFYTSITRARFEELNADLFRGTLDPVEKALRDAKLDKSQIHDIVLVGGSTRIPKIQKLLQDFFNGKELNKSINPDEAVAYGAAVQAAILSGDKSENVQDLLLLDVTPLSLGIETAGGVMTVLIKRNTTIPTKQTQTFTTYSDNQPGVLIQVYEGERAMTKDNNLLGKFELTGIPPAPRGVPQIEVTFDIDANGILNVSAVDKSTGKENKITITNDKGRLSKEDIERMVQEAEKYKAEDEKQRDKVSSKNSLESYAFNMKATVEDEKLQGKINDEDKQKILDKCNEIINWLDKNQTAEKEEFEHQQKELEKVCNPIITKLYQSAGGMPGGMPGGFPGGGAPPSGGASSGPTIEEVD
UniProt P13473, residues 29-410: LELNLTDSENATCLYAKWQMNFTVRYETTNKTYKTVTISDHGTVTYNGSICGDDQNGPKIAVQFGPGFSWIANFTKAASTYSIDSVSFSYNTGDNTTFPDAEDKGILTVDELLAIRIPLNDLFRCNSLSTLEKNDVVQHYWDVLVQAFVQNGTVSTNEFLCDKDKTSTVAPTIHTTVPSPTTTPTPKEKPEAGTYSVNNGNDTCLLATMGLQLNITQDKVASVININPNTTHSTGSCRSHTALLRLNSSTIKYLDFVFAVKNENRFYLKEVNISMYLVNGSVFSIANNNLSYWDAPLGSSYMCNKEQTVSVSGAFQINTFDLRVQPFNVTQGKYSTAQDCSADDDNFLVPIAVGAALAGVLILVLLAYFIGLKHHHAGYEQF
UniProt O75376: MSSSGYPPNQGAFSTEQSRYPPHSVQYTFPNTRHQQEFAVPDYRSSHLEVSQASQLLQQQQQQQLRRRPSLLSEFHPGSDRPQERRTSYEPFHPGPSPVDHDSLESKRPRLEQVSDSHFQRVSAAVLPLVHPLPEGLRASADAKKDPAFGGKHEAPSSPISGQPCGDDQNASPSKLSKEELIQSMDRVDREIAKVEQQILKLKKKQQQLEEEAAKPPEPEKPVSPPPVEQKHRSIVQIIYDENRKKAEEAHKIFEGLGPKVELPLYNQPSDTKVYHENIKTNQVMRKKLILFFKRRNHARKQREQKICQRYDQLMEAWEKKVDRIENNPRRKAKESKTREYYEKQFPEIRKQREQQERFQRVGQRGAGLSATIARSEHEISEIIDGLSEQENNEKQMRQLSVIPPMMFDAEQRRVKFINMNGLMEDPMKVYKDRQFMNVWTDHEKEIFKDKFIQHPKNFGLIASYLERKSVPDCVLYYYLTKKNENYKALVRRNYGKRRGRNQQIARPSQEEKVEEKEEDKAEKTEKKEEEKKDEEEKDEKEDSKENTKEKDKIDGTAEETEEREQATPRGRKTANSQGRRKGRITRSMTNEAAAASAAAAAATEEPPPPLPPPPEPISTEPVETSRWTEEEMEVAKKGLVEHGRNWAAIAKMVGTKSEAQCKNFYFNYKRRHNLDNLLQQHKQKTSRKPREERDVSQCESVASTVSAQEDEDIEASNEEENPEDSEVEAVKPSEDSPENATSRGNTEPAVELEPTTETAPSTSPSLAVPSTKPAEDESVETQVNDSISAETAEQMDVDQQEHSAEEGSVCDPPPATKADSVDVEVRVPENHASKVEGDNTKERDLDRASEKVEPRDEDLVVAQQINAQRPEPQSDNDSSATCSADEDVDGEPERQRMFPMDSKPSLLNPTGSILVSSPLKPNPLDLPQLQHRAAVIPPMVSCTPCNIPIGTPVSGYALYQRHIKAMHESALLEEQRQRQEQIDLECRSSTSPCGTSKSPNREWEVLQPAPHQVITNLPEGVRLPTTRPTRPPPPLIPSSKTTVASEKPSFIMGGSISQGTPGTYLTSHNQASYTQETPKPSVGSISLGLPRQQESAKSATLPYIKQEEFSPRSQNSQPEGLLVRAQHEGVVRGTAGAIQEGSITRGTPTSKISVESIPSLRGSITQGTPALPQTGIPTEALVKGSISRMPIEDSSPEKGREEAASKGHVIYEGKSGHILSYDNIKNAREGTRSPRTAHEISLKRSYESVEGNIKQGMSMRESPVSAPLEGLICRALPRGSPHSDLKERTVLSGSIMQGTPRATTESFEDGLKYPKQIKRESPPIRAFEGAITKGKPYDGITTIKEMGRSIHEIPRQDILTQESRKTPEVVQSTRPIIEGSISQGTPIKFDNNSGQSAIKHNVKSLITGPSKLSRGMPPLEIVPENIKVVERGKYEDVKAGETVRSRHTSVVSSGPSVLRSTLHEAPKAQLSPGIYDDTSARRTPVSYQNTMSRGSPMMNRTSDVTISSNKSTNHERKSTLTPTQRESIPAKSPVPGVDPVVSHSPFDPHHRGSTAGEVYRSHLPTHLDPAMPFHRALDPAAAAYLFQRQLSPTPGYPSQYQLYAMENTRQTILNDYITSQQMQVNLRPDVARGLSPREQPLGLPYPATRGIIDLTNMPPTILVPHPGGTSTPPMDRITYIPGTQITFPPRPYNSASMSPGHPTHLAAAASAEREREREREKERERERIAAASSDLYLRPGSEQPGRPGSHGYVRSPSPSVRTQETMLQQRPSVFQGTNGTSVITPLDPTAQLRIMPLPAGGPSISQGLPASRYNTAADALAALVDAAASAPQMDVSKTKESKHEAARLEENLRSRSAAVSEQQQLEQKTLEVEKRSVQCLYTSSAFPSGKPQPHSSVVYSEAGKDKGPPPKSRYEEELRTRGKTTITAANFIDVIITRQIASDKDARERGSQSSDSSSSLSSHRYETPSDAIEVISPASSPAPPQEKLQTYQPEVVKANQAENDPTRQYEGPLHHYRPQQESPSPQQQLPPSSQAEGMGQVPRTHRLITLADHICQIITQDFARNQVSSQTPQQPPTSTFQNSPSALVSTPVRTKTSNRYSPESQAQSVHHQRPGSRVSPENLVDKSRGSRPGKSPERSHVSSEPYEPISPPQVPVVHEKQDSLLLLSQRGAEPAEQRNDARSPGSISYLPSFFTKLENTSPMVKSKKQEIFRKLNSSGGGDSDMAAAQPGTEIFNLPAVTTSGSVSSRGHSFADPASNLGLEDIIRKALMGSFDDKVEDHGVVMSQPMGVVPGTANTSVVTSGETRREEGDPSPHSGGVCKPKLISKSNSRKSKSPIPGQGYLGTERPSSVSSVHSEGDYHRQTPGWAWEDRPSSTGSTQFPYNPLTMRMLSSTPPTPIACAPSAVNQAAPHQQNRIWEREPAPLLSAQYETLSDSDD

Legend:
[1] = target: Heat shock cognate 71 kDa protein (Hsc70) (human (endogenous in U87-MG)) (UniProt P11142); test: co-IP; U87-MG lysate (20 mM Tris pH 7.5, 150 mM NaCl, 1% Triton X-100, 1 mM EDTA, protease inhibitors); precipitated with anti-LAMP-2A or anti-Hsc70 antibody (IgG as control) and Protein G-agarose, overnight at 4 °C; N-CoR detected by western blot
[2] = target: Lysosome-associated membrane protein type 2A (LAMP-2A) (human (endogenous in U87-MG)) (UniProt P13473); test: as above

Nuclear receptor co-repressor (N-CoR) (from UniProt O75376 1-2440)
binding [1]: binds | binding [2]: binds
